PMC11881899
Results are given in words; binding and its absence hold for the method and conditions named. Some results given as binding are weak or reduced against the parent protein; the word gives no strength.

Sequences of proteins named here, by UniProt entry; tags and fusion partners are left off.
UniProt Q8IXH7: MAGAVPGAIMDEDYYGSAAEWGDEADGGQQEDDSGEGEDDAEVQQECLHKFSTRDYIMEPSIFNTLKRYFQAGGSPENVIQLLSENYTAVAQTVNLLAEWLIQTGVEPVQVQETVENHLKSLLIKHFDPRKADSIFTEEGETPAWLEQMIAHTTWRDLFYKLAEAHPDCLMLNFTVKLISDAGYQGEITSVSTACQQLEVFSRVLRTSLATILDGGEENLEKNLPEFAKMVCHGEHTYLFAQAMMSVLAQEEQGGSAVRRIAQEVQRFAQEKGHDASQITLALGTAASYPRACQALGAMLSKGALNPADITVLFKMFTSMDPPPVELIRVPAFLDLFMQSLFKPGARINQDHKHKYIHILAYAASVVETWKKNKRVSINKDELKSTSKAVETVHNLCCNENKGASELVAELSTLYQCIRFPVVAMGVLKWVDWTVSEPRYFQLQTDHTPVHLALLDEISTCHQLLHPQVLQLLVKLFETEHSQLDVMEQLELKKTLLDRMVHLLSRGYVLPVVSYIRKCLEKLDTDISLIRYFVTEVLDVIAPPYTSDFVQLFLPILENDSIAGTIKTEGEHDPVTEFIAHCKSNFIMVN

Target: human NELF-C, C-terminally His6-tagged (human) (UniProt Q8IXH7)
Assay: mass photometry; wild-type NELF and the 3E mutant diluted to 10 nM with buffer D (20 mM Tris-HCl pH 8.0, 150 mM NaCl, 1 mM DTT); Refeyn TwoMP; both purified

binding: binds
Substance: human NELF-B (from UniProt Q8WX92 49-628)
